Test results taken from PMC9740361.
Results are given in words; binding and its absence hold for the method and conditions named. In cells and extracts the contact can be indirect. Some results given as binding are weak or reduced against the parent protein; the word gives no strength. Tags and fused reporters may be left off the sequences shown.

Protein sequences, listed by entry. Tags and fused reporters are not part of them.
UniProt P35579: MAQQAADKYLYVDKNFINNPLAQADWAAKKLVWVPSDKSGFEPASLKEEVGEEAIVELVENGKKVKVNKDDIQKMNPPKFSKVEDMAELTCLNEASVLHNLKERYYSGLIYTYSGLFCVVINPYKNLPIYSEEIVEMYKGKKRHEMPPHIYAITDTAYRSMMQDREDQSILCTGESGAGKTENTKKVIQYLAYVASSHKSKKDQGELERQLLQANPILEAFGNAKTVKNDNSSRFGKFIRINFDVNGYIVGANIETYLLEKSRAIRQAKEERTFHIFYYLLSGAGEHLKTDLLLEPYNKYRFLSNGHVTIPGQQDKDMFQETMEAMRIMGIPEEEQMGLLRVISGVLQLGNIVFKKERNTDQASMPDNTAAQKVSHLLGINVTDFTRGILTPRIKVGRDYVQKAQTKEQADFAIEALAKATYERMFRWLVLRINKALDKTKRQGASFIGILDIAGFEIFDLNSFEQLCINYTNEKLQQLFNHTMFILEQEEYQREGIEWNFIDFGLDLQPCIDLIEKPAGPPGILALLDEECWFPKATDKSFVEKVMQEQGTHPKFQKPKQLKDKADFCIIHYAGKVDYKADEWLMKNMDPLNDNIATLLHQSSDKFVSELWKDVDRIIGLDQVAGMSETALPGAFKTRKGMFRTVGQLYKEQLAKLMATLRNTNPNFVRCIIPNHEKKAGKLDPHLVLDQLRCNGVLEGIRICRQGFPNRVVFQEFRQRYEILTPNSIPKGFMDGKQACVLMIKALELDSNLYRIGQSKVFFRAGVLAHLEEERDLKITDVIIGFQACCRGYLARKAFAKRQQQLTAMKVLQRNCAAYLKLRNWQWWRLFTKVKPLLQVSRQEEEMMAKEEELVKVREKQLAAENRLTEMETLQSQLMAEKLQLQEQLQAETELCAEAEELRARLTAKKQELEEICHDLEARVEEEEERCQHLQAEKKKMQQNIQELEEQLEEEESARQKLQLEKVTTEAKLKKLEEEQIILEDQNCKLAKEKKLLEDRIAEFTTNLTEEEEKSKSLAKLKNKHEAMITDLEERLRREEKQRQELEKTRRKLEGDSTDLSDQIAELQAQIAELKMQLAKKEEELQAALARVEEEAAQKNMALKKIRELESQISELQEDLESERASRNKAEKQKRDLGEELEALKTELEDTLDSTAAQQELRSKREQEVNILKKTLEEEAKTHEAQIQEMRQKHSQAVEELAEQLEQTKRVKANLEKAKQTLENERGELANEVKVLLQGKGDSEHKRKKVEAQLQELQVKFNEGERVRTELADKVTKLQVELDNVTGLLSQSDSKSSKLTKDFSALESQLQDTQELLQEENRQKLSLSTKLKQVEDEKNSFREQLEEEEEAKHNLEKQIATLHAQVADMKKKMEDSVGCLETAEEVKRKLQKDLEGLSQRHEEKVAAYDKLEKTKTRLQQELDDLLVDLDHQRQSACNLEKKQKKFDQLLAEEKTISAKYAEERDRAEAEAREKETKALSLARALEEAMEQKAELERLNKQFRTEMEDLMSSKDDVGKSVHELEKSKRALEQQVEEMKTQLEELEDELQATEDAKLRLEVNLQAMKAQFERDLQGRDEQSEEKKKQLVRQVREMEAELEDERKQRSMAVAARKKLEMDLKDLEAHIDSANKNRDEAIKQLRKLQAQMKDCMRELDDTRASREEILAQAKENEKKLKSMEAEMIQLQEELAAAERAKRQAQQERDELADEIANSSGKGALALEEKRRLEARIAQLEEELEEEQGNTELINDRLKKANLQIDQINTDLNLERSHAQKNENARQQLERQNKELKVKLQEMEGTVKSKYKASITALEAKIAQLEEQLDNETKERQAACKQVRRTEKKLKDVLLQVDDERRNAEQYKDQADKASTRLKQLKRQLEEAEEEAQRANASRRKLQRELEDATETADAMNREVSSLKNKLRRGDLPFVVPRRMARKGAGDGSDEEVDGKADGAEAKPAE

Target: T1, Nucleosome assembly protein 1-like 5 (NAP1L5), Flag-tagged (human) (UniProt Q96NT1)
T1 sequence: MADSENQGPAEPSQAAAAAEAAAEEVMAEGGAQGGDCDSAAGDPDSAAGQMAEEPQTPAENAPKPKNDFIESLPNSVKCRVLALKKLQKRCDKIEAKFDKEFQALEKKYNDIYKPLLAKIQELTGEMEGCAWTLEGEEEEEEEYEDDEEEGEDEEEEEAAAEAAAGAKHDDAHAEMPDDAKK
Assay: co-IP; cells lysed in low-salt lysis buffer, 4°C; anti-Flag or anti-IgG antibody overnight at 4°C, protein A/G beads, washed in TBST 3 times; Western blotting

binding: binds
Substance: MYH9 (nonmuscle myosin, NMIIA) (from UniProt P35579 1-1960)
